Data on 24 compounds can be found in PubChem BioAssay AID330 (DTP/NCI, 2004).

In the test the test system is P388 leukemia ip, CD2F1 mice, survival T/C. As to the kind of experiment: NCI In Vivo Anticancer Drug Screen. Data for tumor model P388 Leukemia (intraperitoneal) in CD2F1 (CDF1) mice. Particulars: T/C endpoint: median survival time, higher T/C = longer survival.
[1] abbreviates: dose: 200.0 mg/kg/injection, schedule: Q01DX005 (ip), vehicle: Klucel (hydroxypropylcellulose) (HPC).
[2] abbreviates: dose: 200.0 mg/kg/injection, schedule: Q04DX003 (ip), vehicle: saline with Tween-80.
[3] abbreviates: dose: 400.0 mg/kg/injection, schedule: Q04DX003 (ip), vehicle: saline with Tween-80.
The mark [4] stands for this setting: dose: 200.0 mg/kg/injection, schedule: Q01DX009 (ip), vehicle: Klucel (hydroxypropylcellulose) (HPC).
[5] abbreviates: dose: 100.0 mg/kg/injection, schedule: Q01DX009 (ip), vehicle: saline.
Setting [6] is: dose: 200.0 mg/kg/injection, schedule: Q01DX009 (ip), vehicle: saline.
Setting [7] is: dose: 25.0 mg/kg/injection, schedule: Q01DX005 (ip), vehicle: Klucel (hydroxypropylcellulose) (HPC).
Setting [8] is: dose: 50.0 mg/kg/injection, schedule: Q01DX005 (ip), vehicle: Klucel (hydroxypropylcellulose) (HPC).
Setting [9] is: dose: 100.0 mg/kg/injection, schedule: Q01DX005 (ip), vehicle: Klucel (hydroxypropylcellulose) (HPC).
The mark [10] stands for this setting: dose: 200.0 mg/kg/injection, schedule: Q01DX005 (ip), vehicle: saline.

The list does not hold the whole screen: it gathers tests that were run many times, whatever their T/C, doses with no T/C, and many T/C values between a quarter and a half above the control. Other doses and runs of a compound stand elsewhere. T/C gives the treated animals as a percentage of the vehicle group. Some doses have a count of surviving animals in place of a T/C: the source files T/C as zero there, which appears to mark a toxic dose or a test without result, not a measured value. Some doses without a T/C left all or most animals alive at the check, yet need not have been tolerated: the source hardly ever lists a survival T/C far under the control, and the zero likely stands for such cases as well. Survivors were counted at the toxicity check, usually on the fifth day, unless a day is given; later deaths do not show. Schedules are NCI's codes, read here as Q, the interval in days (D) or hours (H), X, the number of doses. Some entries were tested several times; their values stand side by side, smallest first. Where survival is the endpoint, this PubChem deposit counts one and a half times the control or more as active, and values a quarter to a half above the control carry no call in these data; other NCI protocols may use other cut-offs. Some T/C values are followed by the survivors on the day toxicity was checked, most often the fifth; where none is given, no animal had died by that day.

With `Cc1nn(C)cc1P(=O)(c1ccccc1)c1ccccc1`, the survivor count under setting [1] is recorded as 1 of 6.

On to `Cc1cccc(C)c1-n1c(C)nc2c(c(C)c(C)n2-c2ccccc2)c1=N`, for which the survivor count under setting [1] was 0 of 6.

Turning to `O=C1CC2(C(=O)N1CN1CCN(c3ccc(F)cc3)CC1)c1ccccc1-c1ccccc12` (tested in a mixture with another compound), the survivor count under setting [2] is on record as 1 of 6 and the survivor count under setting [3] is recorded as 0 of 6.

For the compound `COc1ccc(CCNC2(C#N)CCCCC2)cc1OC`, the survivor count under setting [4] was 0 of 6.

Consider `NCCNCC[OH2+].NCCNCC[OH2+].[Ni+2].[O-][Cl+3]([O-])([O-])[O-]`, for which the survivor count reads like this: under setting [5], 2 of 6; under setting [6], 0 of 6.

On to `COC(=O)C1=NC(=N)N=C(C(=O)OC)C1(C)C(=O)c1ccc(Cl)cc1` (stereo not given), for which the survivor count by setting is: (dose: 120.0 mg/kg/injection, schedule: Q01DX005 (ip), vehicle: saline with Tween-80) 3 of 6; (dose: 240.0 mg/kg/injection, schedule: Q01DX005 (ip), vehicle: saline with Tween-80) 1 of 6.

Take `CC1OC(CC(=O)O)CC2=C1C(=O)c1c(O)cccc1C2=O` (stereo not given): the survivor count runs as follows: (dose: 50.0 mg/kg/injection, schedule: Q01DX009 (ip), vehicle: saline with Tween-80) 0 of 6; (dose: 62.5 mg/kg/injection, schedule: Q01DX009 (ip), vehicle: saline with Tween-80) 0 of 6.

With `Cc1cc(C)c(C(Cl)(Cl)Cl)c(C)c1Cl`, the T/C reads like this: (dose: 25.0 mg/kg/injection, schedule: Q01DX009 (ip), vehicle: saline sonified) 131 % of control; (dose: 25.0 mg/kg/injection, schedule: Q04DX003 (ip), vehicle: saline with Tween-80) 127 % of control; (dose: 50.0 mg/kg/injection, schedule: Q01DX009 (ip), vehicle: saline sonified) 136 % of control. In addition, the survivor count (dose: 100.0 mg/kg/injection, schedule: Q04DX003 (ip), vehicle: saline with Tween-80) is listed as 1 of 6; the survivor count under setting [2] is 1 of 6; the survivor count under setting [3] is reported as 0 of 6.

Turning to `Cn1c(=O)c2c(=O)n3ccccc3nc2n(C)c1=O`, under setting [1], the survivor count is 6 of 6.

Turning to `CCc1nc(N)nc(N)c1-c1ccc(NC)c([N+](=O)[O-])c1`, the T/C is, setting by setting: under setting [7], 135 % of control; under setting [8], 136 and 142 % of control. For the same compound, the survivor count runs as follows: under setting [9], 6 of 6; under setting [1], 5 of 6.

`ClCC1CCN(Cc2ccccc2)CC1`: the survivor count under setting [3] is 1 of 6.

For `OC1CCCSc2ccccc21` (stereo not given), the T/C (dose: 100.0 mg/kg/injection, schedule: Q01DX009 (ip), vehicle: saline with Tween-80) is 144 % of control.

On to `C/C(=N/N=C(N)N)c1cnc(N/N=C(\C)c2cnc(NN)nc2C)nc1C`, for which the survivor count is, setting by setting: (dose: 60.0 mg/kg/injection, schedule: Q01DX005 (ip), vehicle: saline) 3 of 6; (dose: 120.0 mg/kg/injection, schedule: Q01DX005 (ip), vehicle: saline) 0 of 6; (dose: 240.0 mg/kg/injection, schedule: Q01DX005 (ip), vehicle: saline) 0 of 6.

Take `N=C(N)c1ccc2oc(/C=C/c3cc4ccc(C(=N)N)cc4o3)cc2c1`: the T/C by setting is: (dose: 100.0 mg/kg/injection, schedule: Q04DX003 (ip), vehicle: suspension in saline) 149 % of control; (dose: 200.0 mg/kg/injection, schedule: Q04DX003 (ip), vehicle: suspension in saline) 147 % of control.

With `O=P(C(=S)NC1CC2C=CC1C2)(c1ccccc1)c1ccccc1` (stereo not given), the survivor count reads like this: (dose: 50.0 mg/kg/injection, schedule: Q01DX009 (ip), vehicle: Klucel (hydroxypropylcellulose) (HPC)) 6 of 6; (dose: 100.0 mg/kg/injection, schedule: Q01DX009 (ip), vehicle: Klucel (hydroxypropylcellulose) (HPC)) 6 of 6; under setting [4], 5 of 6.

Consider `COc1ccc2nc(Cl)c(CBr)c(CBr)c2c1`, for which the survivor count by setting is: under setting [7], 1 of 5; under setting [8], 1 of 5; under setting [9], 2 of 5; under setting [1], 0 of 5.

On to `CCC(=O)[C@]1(O)Cc2c(O)c3c(c(O)c2[C@@H](OC2CC(N)C(O)C(C)O2)C1)C(=O)c1c(OC)cccc1C3=O` (stereo not given in full), for which the T/C runs as follows: (dose: 25.0 mg/kg/injection, schedule: Q04DX003 (ip), vehicle: water) 127 % of control; (dose: 50.0 mg/kg/injection, schedule: Q04DX003 (ip), vehicle: water) 127 % of control. The survivor count by setting is: (dose: 100.0 mg/kg/injection, schedule: Q04DX003 (ip), vehicle: water) 0 of 3; (dose: 200.0 mg/kg/injection, schedule: Q04DX003 (ip), vehicle: water) 0 of 3.

For the compound `CCc1ncnc2cc(OCC3CO3)c(OC)cc12` (stereo not given), the T/C (dose: 12.5 mg/kg/injection, schedule: Q01DX005 (ip), vehicle: saline) is on record as 130, 132, 133 % of control and the T/C (dose: 25.0 mg/kg/injection, schedule: Q01DX005 (ip), vehicle: saline) is 138 % of control. Further, the survivor count was 5 of 6 and 6 of 6 (dose: 100.0 mg/kg/injection, schedule: Q01DX005 (ip), vehicle: saline); 0 of 6 and 1 of 6 under setting [10].

In the case of `Cc1nc(Nc2ccc(F)cc2)c2c(-c3ccccc3)c[nH]c2n1`, the survivor count under setting [1] is on record as 6 of 6.

With `Cc1cc(OC(=O)Nc2ccc(C(C)C)cc2)c(C)cc1Br`, under “dose: 50.0 mg/kg/injection, schedule: Q01DX009 (ip), vehicle: saline + alcohol”, the survivor count is 6 of 6.

For the compound `CC(=O)OC(CC=C(C)C)C1=CC(=O)c2c(O)ccc(O)c2C1=O` (stereo not given), the survivor count was 3 of 6 (dose: 25.0 mg/kg/injection, schedule: Q01DX005 (ip), vehicle: saline with Tween-80); 0 of 6 (dose: 50.0 mg/kg/injection, schedule: Q01DX005 (ip), vehicle: saline with Tween-80); 1 of 6 (dose: 100.0 mg/kg/injection, schedule: Q01DX001 (ip), vehicle: saline with Tween-80); 0 of 6 (dose: 200.0 mg/kg/injection, schedule: Q01DX001 (ip), vehicle: saline with Tween-80); 0 of 6 (dose: 400.0 mg/kg/injection, schedule: Q01DX001 (ip), vehicle: saline with Tween-80).

As to `CN(C)CCC(=O)C(=Cc1ccc(Cl)c(Cl)c1)C(=O)CCN(C)C`, the survivor count is listed as 1 of 5 under setting [10] and 0 of 5 (dose: 400.0 mg/kg/injection, schedule: Q01DX005 (ip), vehicle: saline).

`CC1(C)CC(N2CCOCC2)=CC(=NCc2ccccc2)N1`: the survivor count is 0 of 6 under setting [9] and 0 of 6 under setting [1].

As to `CCCCCCCCCCCCCCCCCC[N+]1(CC)CCCCC1`, the survivor count is 6 of 6 (dose: 0.09 mg/kg/injection, schedule: Q01DX009 (ip), vehicle: saline); 5 of 6 (dose: 0.78 mg/kg/injection, schedule: Q01DX009 (ip), vehicle: saline); 3 of 6 (dose: 1.56 mg/kg/injection, schedule: Q01DX009 (ip), vehicle: saline); 0 of 6 (dose: 3.12 mg/kg/injection, schedule: Q01DX009 (ip), vehicle: saline); 0 of 6 (dose: 6.25 mg/kg/injection, schedule: Q01DX009 (ip), vehicle: saline); 1 of 6 (dose: 12.5 mg/kg/injection, schedule: Q01DX009 (ip), vehicle: saline). In addition, the survivor count is, setting by setting: (dose: 50.0 mg/kg/injection, schedule: Q01DX009 (ip), vehicle: saline) 0 of 6; under setting [5], 0 of 6; under setting [6], 0 of 6. In addition, the T/C (dose: 0.39 mg/kg/injection, schedule: Q01DX009 (ip), vehicle: saline) was 125 % of control [4 of 6 alive].
